# Assay results published in patent US8759301B2, “Gene fusion targeted therapy” (The Regents of The University of Michigan, priority 2010, dated 2014).
# Chains of the proteins cited; added tags and fusions are not shown.
# UniProt P10275, whole entry T878A: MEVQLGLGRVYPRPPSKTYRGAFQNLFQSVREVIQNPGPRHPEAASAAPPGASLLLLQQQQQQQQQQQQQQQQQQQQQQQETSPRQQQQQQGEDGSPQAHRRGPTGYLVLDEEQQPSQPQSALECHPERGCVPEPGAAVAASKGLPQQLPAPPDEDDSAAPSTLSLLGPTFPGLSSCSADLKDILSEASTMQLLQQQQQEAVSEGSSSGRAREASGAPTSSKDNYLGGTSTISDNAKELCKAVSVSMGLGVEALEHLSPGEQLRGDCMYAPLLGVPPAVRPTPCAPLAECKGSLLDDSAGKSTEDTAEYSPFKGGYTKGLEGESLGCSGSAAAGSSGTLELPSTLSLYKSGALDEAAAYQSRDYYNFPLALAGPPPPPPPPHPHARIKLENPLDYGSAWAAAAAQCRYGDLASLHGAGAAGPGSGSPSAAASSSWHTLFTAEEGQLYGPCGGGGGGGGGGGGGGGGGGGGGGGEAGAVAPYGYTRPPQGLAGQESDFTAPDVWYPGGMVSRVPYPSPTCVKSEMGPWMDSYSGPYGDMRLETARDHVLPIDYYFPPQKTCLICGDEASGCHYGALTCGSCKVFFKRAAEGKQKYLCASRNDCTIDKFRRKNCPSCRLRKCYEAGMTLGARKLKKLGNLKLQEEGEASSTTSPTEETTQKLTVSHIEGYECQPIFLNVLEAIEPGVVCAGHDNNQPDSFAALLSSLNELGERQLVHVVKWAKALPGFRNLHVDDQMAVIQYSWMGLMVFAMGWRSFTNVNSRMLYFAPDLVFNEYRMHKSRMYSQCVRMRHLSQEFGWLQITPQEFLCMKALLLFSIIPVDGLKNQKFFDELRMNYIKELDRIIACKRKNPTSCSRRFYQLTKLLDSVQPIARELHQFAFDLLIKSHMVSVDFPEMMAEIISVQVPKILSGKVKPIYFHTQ
# Where two headings read alike, the source gives them in different places. The source gives many values for each of these; only a part stands here.
# Target: AR (Homo sapiens, UniProt P10275, T878A)
# Conditions: LNCaP R1881-treated
smiles,measurement,setting,value
"C[C@]1(O)CC[C@H]2[C@@H]3CCC4=CC(=O)CCC4=C3C=C[C@@]21C [R1881, methyltrienolone]",number of AR binding sites,distance to TSS 107 kb,34
same,number of AR binding sites,distance to TSS 108 kb,26
same,number of AR binding sites,distance to TSS 109 kb,24
same,number of AR binding sites,distance to TSS 110 kb,18
same,number of AR binding sites,distance to TSS 111 kb,27
same,number of AR binding sites,distance to TSS 112 kb,23
same,number of AR binding sites,distance to TSS 113 kb,26
same,number of AR binding sites,distance to TSS 114 kb,23
same,number of AR binding sites,distance to TSS 115 kb,29
same,number of AR binding sites,distance to TSS 116 kb,27
same,number of AR binding sites,distance to TSS 117 kb,19
same,number of AR binding sites,distance to TSS 118 kb,22
same,number of AR binding sites,distance to TSS 119 kb,21
same,number of AR binding sites,distance to TSS 120 kb,20
same,number of AR binding sites,distance to TSS 121 kb,21
same,number of AR binding sites,distance to TSS 122 kb,20
same,number of AR binding sites,distance to TSS 123 kb,21
same,number of AR binding sites,distance to TSS 124 kb,29
same,number of AR binding sites,distance to TSS 125 kb,15
same,number of AR binding sites,distance to TSS 126 kb,16
same,number of AR binding sites,distance to TSS 127 kb,22
same,number of AR binding sites,distance to TSS 128 kb,24
same,number of AR binding sites,distance to TSS 129 kb,20
same,number of AR binding sites,distance to TSS 130 kb,23
same,number of AR binding sites,distance to TSS 131 kb,23
same,number of AR binding sites,distance to TSS 132 kb,17
same,number of AR binding sites,distance to TSS 133 kb,14
same,number of AR binding sites,distance to TSS 134 kb,22
same,number of AR binding sites,distance to TSS 135 kb,24
same,number of AR binding sites,distance to TSS 136 kb,25
same,number of AR binding sites,distance to TSS 137 kb,25
same,number of AR binding sites,distance to TSS 138 kb,19
same,number of AR binding sites,distance to TSS 139 kb,22
same,number of AR binding sites,distance to TSS 140 kb,20
same,number of AR binding sites,distance to TSS 141 kb,18
same,number of AR binding sites,distance to TSS 142 kb,20
same,number of AR binding sites,distance to TSS 143 kb,16
same,number of AR binding sites,distance to TSS 144 kb,16
same,number of AR binding sites,distance to TSS 145 kb,11
same,number of AR binding sites,distance to TSS 146 kb,17
same,number of AR binding sites,distance to TSS 147 kb,22
same,number of AR binding sites,distance to TSS 148 kb,14
same,number of AR binding sites,distance to TSS 149 kb,13
same,number of AR binding sites,distance to TSS 150 kb,19
same,number of AR binding sites,distance to TSS 151 kb,15
same,number of AR binding sites,distance to TSS 152 kb,14
same,number of AR binding sites,distance to TSS 153 kb,12
same,number of AR binding sites,distance to TSS 154 kb,26
same,number of AR binding sites,distance to TSS 155 kb,19
same,number of AR binding sites,distance to TSS 156 kb,13
same,number of AR binding sites,distance to TSS 157 kb,13
same,number of AR binding sites,distance to TSS 158 kb,19
same,number of AR binding sites,distance to TSS 159 kb,16
same,number of AR binding sites,distance to TSS 160 kb,16
same,number of AR binding sites,distance to TSS 161 kb,9
same,number of AR binding sites,distance to TSS 162 kb,16
same,number of AR binding sites,distance to TSS 163 kb,14
same,number of AR binding sites,distance to TSS 164 kb,5
same,number of AR binding sites,distance to TSS 165 kb,15
same,number of AR binding sites,distance to TSS 166 kb,15
same,number of AR binding sites,distance to TSS 167 kb,10
same,number of AR binding sites,distance to TSS 168 kb,8
same,number of AR binding sites,distance to TSS 169 kb,15
same,number of AR binding sites,distance to TSS 170 kb,14
same,number of AR binding sites,distance to TSS 171 kb,14
same,number of AR binding sites,distance to TSS 172 kb,16
same,number of AR binding sites,distance to TSS 173 kb,17
same,number of AR binding sites,distance to TSS 174 kb,13
same,number of AR binding sites,distance to TSS 175 kb,10
same,number of AR binding sites,distance to TSS 176 kb,11
same,number of AR binding sites,distance to TSS 177 kb,15
same,number of AR binding sites,distance to TSS 178 kb,7
same,number of AR binding sites,distance to TSS 179 kb,10
same,number of AR binding sites,distance to TSS 180 kb,11
same,number of AR binding sites,distance to TSS 181 kb,14
same,number of AR binding sites,distance to TSS 182 kb,12
same,number of AR binding sites,distance to TSS 183 kb,10
same,number of AR binding sites,distance to TSS 184 kb,11
same,number of AR binding sites,distance to TSS 185 kb,11
same,number of AR binding sites,distance to TSS 186 kb,16
same,number of AR binding sites,distance to TSS 187 kb,19
same,number of AR binding sites,distance to TSS 188 kb,12
same,number of AR binding sites,distance to TSS 189 kb,9
same,number of AR binding sites,distance to TSS 190 kb,7
same,number of AR binding sites,distance to TSS 191 kb,14
same,number of AR binding sites,distance to TSS 192 kb,19
same,number of AR binding sites,distance to TSS 193 kb,10
same,number of AR binding sites,distance to TSS 194 kb,11
same,number of AR binding sites,distance to TSS 195 kb,9
same,number of AR binding sites,distance to TSS 196 kb,10
same,number of AR binding sites,distance to TSS 197 kb,8
same,number of AR binding sites,distance to TSS 198 kb,15
same,number of AR binding sites,distance to TSS 199 kb,8
